Literature values, collected in patent EP4115885A1 (Charité - Universitätsmedizin Berlin, priority 2021, dated 2023).
At least one structure is not confirmed: it was looked up by name or label, or the drawing left a doubt.

In the case of C[C@@H]1C[C@H]2[C@@H]3CCC4=CC(=O)C=C[C@]4(C)[C@@]3(F)[C@@H](O)C[C@]2(C)[C@@]1(O)C(=O)CO [dexamethasone], the “number of ventilator-free days” value (moderate to severe ARDS, compared to standard care only) is listed as “significantly increased” and the 28-day mortality (patients hospitalized for COVID-19 receiving supplemental oxygen or mechanical ventilation, not in patients without respiratory support) is listed as “lowered”.
